Values from PubChem BioAssay AID1259308 (NCATS, 2017).
Purpose: 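Knock-downs that increase output of a recombinant reporter protein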 (primary screen). Cell system: human HEK293 embryonic kidney cells stably expressing firefly luciferase (HEK-CMV-Luc2-Hygro). Reagent: single siRNA against human genes, 0.8 pmol siRNA per well. Duration: 72 h. Measured: 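Luciferase light (ONE-Glo) measured on one replicate plate set and viability (CellTiter-Glo) on the other, scaled to a negative control siRNA, with robust z-scores and luciferase per cell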. Scale: total luciferase, z-score and total luciferase, % of control: higher = more reporter protein produced. Active means: 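Active when the median/MAD z-score for overall luciferase is greater than 3; a gene was taken forward for validation with new siRNAs if at least two of its three siRNAs passed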. Calls: active = raised luciferase; inactive = no rise.
In all, the deposit lists about 59,000 reagents; below is a random part of them. About 1,510 of all reagents (2.6%) count as active. 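Calls use total luciferase alone and ignore viability, so some active siRNAs may act by altering cell number.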 Unmarked entries are inactive. The numbers tell different reagents against one gene apart. Further read-outs or replicates are left out here.

| target gene | siRNA no. | total luciferase, z-score | total luciferase, % of control |
| --- | --- | --- | --- |
| ANKRD13D (GeneID 338692) | 1 | 0.935 | 100 |
| ANKRD13D (GeneID 338692) | 2 | 0.693 | 95.7 |
| ANKRD13D (GeneID 338692) | 3 | 2.07 | 123 |
| CHRM2 (GeneID 1129) | 1 | 0.000483 | 81.9 |
| CHRM2 (GeneID 1129) | 2 | 0.14 | 84.7 |
| CHRM2 (GeneID 1129) | 3 | -1.06 | 60.9 |
| SELENOT (GeneID 51714) | 1 | 0.0515 | 82.9 |
| SELENOT (GeneID 51714) | 2 | -0.0781 | 80.3 |
| SELENOT (GeneID 51714) | 3 | 1.07 | 103 |
| PLEKHG4B (GeneID 153478) | 1 | -0.789 | 66.2 |
| PLEKHG4B (GeneID 153478) | 2 | 0.221 | 86.3 |
| PLEKHG4B (GeneID 153478) | 3 | 0.687 | 95.5 |
| ZNF835 (GeneID 90485) | 1 | -0.613 | 69.7 |
| ZNF835 (GeneID 90485) | 2 | -0.233 | 77.2 |
| ZNF835 (GeneID 90485) | 3 | 2.12 | 124 |
| MYH2 (GeneID 4620) | 1 | -2.16 | 39 |
| MYH2 (GeneID 4620) | 2 | 0.671 | 95.2 |
| MYH2 (GeneID 4620) | 3 | -0.49 | 72.1 |
| SLC46A2 (GeneID 57864) | 1 | 1.21 | 106 |
| SLC46A2 (GeneID 57864) | 2 | -0.769 | 66.6 |
| SLC46A2 (GeneID 57864) | 3 | -1.11 | 59.7 |
| GTF3C4 (GeneID 9329) | 1 | 0.158 | 85 |
| GTF3C4 (GeneID 9329) | 2 | -0.473 | 72.5 |
| GTF3C4 (GeneID 9329) | 3 | 0.905 | 99.9 |

Next part; the last 6 above are carried over.
| target gene | siRNA no. | total luciferase, z-score | total luciferase, % of control |
| --- | --- | --- | --- |
| SLC46A2 (GeneID 57864) | 1 | 1.21 | 106 |
| SLC46A2 (GeneID 57864) | 2 | -0.769 | 66.6 |
| SLC46A2 (GeneID 57864) | 3 | -1.11 | 59.7 |
| GTF3C4 (GeneID 9329) | 1 | 0.158 | 85 |
| GTF3C4 (GeneID 9329) | 2 | -0.473 | 72.5 |
| GTF3C4 (GeneID 9329) | 3 | 0.905 | 99.9 |
| KIR3DL3 (GeneID 115653) | 1 | -0.318 | 75.6 |
| KIR3DL3 (GeneID 115653) | 2 | 1.13 | 104 |
| KIR3DL3 (GeneID 115653) | 3 | -0.523 | 71.5 |
| GTF2IRD1 (GeneID 9569) | 1 | -0.388 | 74.2 |
| GTF2IRD1 (GeneID 9569) | 2 | -1.22 | 57.6 |
| GTF2IRD1 (GeneID 9569) | 3 | 0.655 | 94.9 |
| KIAA1328 (GeneID 57536) | 1 | 0.415 | 90.1 |
| KIAA1328 (GeneID 57536) | 2 | -0.615 | 69.7 |
| KIAA1328 (GeneID 57536) | 3 | 1.87 | 119 |
| BAIAP2L2 (GeneID 80115) | 1 | -1.61 | 49.8 |
| BAIAP2L2 (GeneID 80115) | 2 | -0.165 | 78.6 |
| BAIAP2L2 (GeneID 80115) | 3 | 1.37 | 109 |
| MRPS22 (GeneID 56945) | 1 | 0.136 | 84.6 |
| MRPS22 (GeneID 56945) | 2 | -0.758 | 66.8 |
| MRPS22 (GeneID 56945) | 3 | 1.63 | 114 |
| SLCO6A1 (GeneID 133482) | 1 | 0.333 | 88.5 |
| SLCO6A1 (GeneID 133482) | 2 | 2.04 | 122 |
| SLCO6A1 (GeneID 133482) | 3 | 1.08 | 103 |
| CA10 (GeneID 56934) | 1 | 0.267 | 87.2 |
| CA10 (GeneID 56934) | 2 | -0.438 | 73.2 |
| CA10 (GeneID 56934) | 3 | 2.66 | 135 |
| GLI3 (GeneID 2737) | 1 | 0.0119 | 82.1 |
| GLI3 (GeneID 2737) | 2 | -1.37 | 54.7 |
| GLI3 (GeneID 2737) | 3 | 2.1 | 124 |
| WDR53 (GeneID 348793) | 1 | -2.01 | 41.9 |
| WDR53 (GeneID 348793) | 2 | -1.91 | 43.9 |
| WDR53 (GeneID 348793) | 3 | -0.136 | 79.2 |
| TC2N (GeneID 123036) | 1 | -1.06 | 60.7 |
| TC2N (GeneID 123036) | 2 | 0.422 | 90.3 |
| TC2N (GeneID 123036) | 3 | 0.547 | 92.8 |
| FAAP24 (GeneID 91442) | 1 | 0.45 | 90.8 |
| FAAP24 (GeneID 91442) | 2 | -0.427 | 73.4 |
| FAAP24 (GeneID 91442) | 3 | -0.0377 | 81.1 |
